According to patent US20240016786A1, “GLUCOSIDASE INHIBITORS FOR THE TREATMENT AND PREVENTION OF PULMONARY INFECTIONS” (priority 2020, published 2024):
Some of these results come from one statement about several compounds together. For part of these data: At least one structure is not confirmed: it was looked up by name or label, or the drawing left a doubt.

Key:
SARS-CoV-2 = SARS-CoV-2 Virospot reduction assay, (strain not specified); type: cell-based
Huh7-hACE2 cells = conditions: Alamar blue assay; cited from earlier work

Molecule `OC[C@@H]1[C@@H](O)[C@H](O)[C@@H](O)CN1CCCCCOCC12CC3CC(CC(C3)C1)C2` [AMP-DNM, N-adamantanemethyloxypentyl-1-deoxynojirimycin] has an IC50 (SARS-CoV-2) of less than 10 µg/mL and an IC90 (SARS-CoV-2) of less than 40 µg/mL.

For `CCCC(=O)O[C@H]1CN2CC[C@H](O)[C@@H]2[C@@H](O)[C@@H]1O` [Celgosivir (6-O-butanoylcastanospermine), 6-O-butanoylcastanospermine], the CC50 (Huh7-hACE2 cells) is listed as greater than 1000 µM.
